Source: PubChem BioAssay AID504467 (National Center for Advancing Translational Sciences (NCATS), 2011)
About 7,700 (2.3%) of roughly 330,000 compounds were called active. Inconclusive results, whose numbers are uncertain, are shown with a selection of clear calls. Calls come from the whole dose curve; as a rule, active = well fitted inhibition curve with a large enough effect; inconclusive = small, poorly fitted or top-dose-only effect, or effect the other way; inactive = flat fitted curve, though single readings scatter. Potencies of inconclusive entries are doubtful fits and often do not repeat.
% is set by controls: 0 for no effect and ±100 for the full control effect; potency is the fitted concentration of half-maximal effect.

Assay: qHTS screen for small molecules that inhibit ELG1-dependent DNA repair in human embryonic kidney (HEK293T) cells expressing luciferase-tagged ELG1; note: nearly all actives have a fitted effect of over 55% in size
Conditions: HEK293T ELG1-luciferase reporter, luminescence, 16 h, DNA damage induced by 5-fluorouridine; activity change, negative = inhibition: at 46.1 µM (top of the series)
In short: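 Quantitative HTS, concentration-response format. 2,000 cells/well co-treated with 5-fluorouridine and compound, 16 hr in 5% CO2 at 37 °C; ONE-Glo luminescence read after 30 min.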
In the case of `CCOc1ccccc1/C=C/c1onc(C)c1S(=O)(=O)N1CCC(C(=O)NC)CC1`, the Potency is reported as inconclusive: 11.6 µM [inhibitor, partial curve, poor fit].
With `CCOC(=O)c1ccc(-c2ccc(/C=C(\C#N)C(=O)NCC3CCCO3)o2)cc1` (stereo not drawn) the “activity change, negative = inhibition” value was inactive: -20.4%.
With `Cc1ccc(C(=O)NC2CCCc3ccccc32)cc1[N+](=O)[O-]` (stereo not drawn) the Potency was inconclusive: 29.1 µM [inhibitor, single point].
For `O=C(NCC1CCCO1)c1cc2ccccc2[nH]1` (stereo not drawn), the Potency was inconclusive: 16.4 µM [activator, partial curve, poor fit].
With `CCCCNc1c(-c2ccc(-c3cccc(Cl)c3)cc2)nc2ccc(Cl)cn12` the Potency was inconclusive: 16.4 µM [activator, partial curve].
In the case of `Cc1cc(-n2c(C)cc(C(=O)COc3ccc4ccc(=O)oc4c3)c2C)no1`, the Potency is reported as inconclusive: 20.6 µM [inhibitor, partial curve].
With `O=C(Nc1ccc(C2=CN(Cc3ccccc3)CCC2=O)cc1)OCc1ccccc1` the “activity change, negative = inhibition” value was inactive: 13.2%.
With `CCOC(=O)N1CCN(C(=O)c2cc3c(s2)-c2ccccc2OC3)CC1` the “activity change, negative = inhibition” value was inactive: -7.48%.
With `CNc1nc(-c2ccc([N+](=O)[O-])cc2)cs1` the Potency was inconclusive: 20.6 µM [activator, partial curve].
With `COc1cc(/C=C/C(=O)OCC(=O)NC(=O)NC(C)C)cc(S(=O)(=O)N2CCc3ccccc32)c1OC` the Potency was inconclusive: 29.1 µM [inhibitor, single point].
In the case of `CCOC(=O)c1ccc(S(=O)(=O)Nc2ccc3cn[nH]c3c2)cc1`, the “activity change, negative = inhibition” value is reported as inactive: -11.4%.
For `COc1cc(/C=N\Nc2ccc([N+](=O)[O-])cc2)ccc1OCC(=O)Nc1ccc(C)c(C)c1`, the Potency was inconclusive: 0.82 µM [inhibitor, partial curve, poor fit].
For `Cc1cc(/C=N/n2cnnc2)c(C)n1-c1ccc(Cl)cc1`, the “activity change, negative = inhibition” value was inactive: 6.21%.
For `CC1CCN(C(=O)CN(C2CCCCC2)S(C)(=O)=O)CC1`, the Potency was inconclusive: 32.6 µM [activator, single point].
For `Cc1ccccc1N=C1NC(=O)CS1`, the “activity change, negative = inhibition” value was inactive: 1.85%.
For `COc1ccc(/C(C)=N/N2C(=O)c3ccccc3NC2c2ccc(O)c(OC)c2)cc1` (stereo not drawn), the Potency was inconclusive: 18.3 µM [activator, partial curve].
For `CC(C)(C)C(=O)Nc1ccc(S(=O)(=O)N2CCC(c3nc4ccccc4[nH]3)CC2)cc1`, the Potency was active: 3.66 µM.
For `Cc1ccc(Cc2c(C)nc3nc(SCC(=O)NCCCN4CCCCCC4)nn3c2C)cc1`, the Potency was inconclusive: 29.1 µM [inhibitor, single point].
With `Cc1ccc2nc(CSc3nc(C)cc(C)c3C#N)[nH]c2c1` the Potency was inconclusive: 1.64 µM [activator, partial curve].
With `O=c1c2ccccc2nc(SCc2cccc(F)c2)n1Cc1ccco1` the “activity change, negative = inhibition” value was inactive: -10.6%.
With `COc1ccc(-c2noc(CCCC(=O)Nc3ccc(C(N)=O)cc3)n2)cc1` the Potency was inconclusive: 16.4 µM [activator, single point].
With `O=S(=O)(c1ccc(Oc2ccc(Br)cc2F)nc1)N1CCCCC1` the Potency was inconclusive: 23.1 µM [inhibitor, single point].
With `CCn1cc(CN2CCC(n3nccc3NC(=O)CCc3ccccc3)CC2)cn1` the “activity change, negative = inhibition” value was inactive: 17.3%.
For `COc1ccc(Cn2cccc(NC(=O)Nc3ccc(C#N)cc3)c2=O)cc1`, the Potency was inconclusive: 0.58 µM [inhibitor, single point].
For `CC(C)(C)SCCNC(=O)/C=C/c1cccc([N+](=O)[O-])c1`, the Potency was inconclusive: 18.4 µM [activator, single point].
With `O=c1[nH]c2ccccc2n1Cc1ccc(Cl)cc1` the “activity change, negative = inhibition” value was inactive: -11.4%.
For `Cc1ccccc1-n1c(SCC(=O)N/N=C/c2ccccc2OCC(=O)O)nc2ccccc2c1=O`, the Potency was inconclusive: 16.4 µM [activator, single point].
In the case of `COc1ccccc1CNC(=S)NCc1ccc(Cl)cc1`, the “activity change, negative = inhibition” value is reported as inactive: 2.63%.
With `CCCc1cc(=O)oc2cc(OCC(=O)NCCc3ccc(S(N)(=O)=O)cc3)ccc12` the “activity change, negative = inhibition” value was inactive: -2.41%.
For `c1ccc(N(c2ccccc2)c2nc(-n3ccnc3)nc(-n3ccnc3)n2)cc1`, the Potency was inconclusive: 29.1 µM [inhibitor, single point].
For `CC(C)n1cnc2c(NCc3ccccc3)cc(Cc3ccc(F)cc3)cc21`, the “activity change, negative = inhibition” value was inactive: 3.39%.
With `COc1ccc(Nc2nc(N)nc(CN(C)C3CCCCC3)n2)cc1` the Potency was inconclusive: 18.4 µM [activator, partial curve, poor fit].
For `O=C(Nc1cccc2ncccc12)c1ccc2c(c1)OCCO2`, the Potency was inconclusive: 20.6 µM [activator, partial curve, poor fit].
For `Cc1noc(C)c1S(=O)(=O)Nc1ccc2c(c1)C(=O)N([C@H](C)CO)C[C@H](C)[C@@H](CN(C)C(=O)Nc1ccc(C(F)(F)F)cc1)O2`, the Potency was inconclusive: 23.1 µM [inhibitor, partial curve, poor fit].
In the case of `CCN1C(=O)[C@H]2[C@@H](c3ccc(-c4ccc(OC)cc4)cc3)N3CCCC[C@@]3(C(=O)OC)[C@H]2C1=O`, the “activity change, negative = inhibition” value is reported as inactive: -20.9%.
With `CC(=O)n1nc(-c2ccco2)nc1SCc1ccccc1` the Potency was inconclusive: 20.6 µM [activator, partial curve].
For `CC(C)c1ccc(Nc2nnns2)cc1`, the Potency was inconclusive: 20.6 µM [activator, single point].
In the case of `COc1ccc(/C=N/Nc2ncccc2[N+](=O)[O-])c(OC)c1`, the Potency is reported as inconclusive: 9.2 µM [activator, partial curve].
With `CC(=O)Nc1nnc(-c2ccc(Cl)s2)o1` the “activity change, negative = inhibition” value was inactive: 19.3%.
In the case of `Cc1ccsc1/C=N\NC(=O)Cn1nnc2ccccc21`, the “activity change, negative = inhibition” value is reported as inactive: -2.94%.
In the case of `COc1cccc(CNc2ccc3[nH]c(=O)[nH]c3c2)c1OCc1ccccc1Cl`, the Potency is reported as inconclusive: 9.2 µM [inhibitor, partial curve].
With `O=C(Cn1ncc2c3ccccc3n(Cc3ccc(F)cc3)c2c1=O)N1CCN(c2ncccn2)CC1` the Potency was inconclusive: 16.4 µM [inhibitor, partial curve].
For `CCn1nc(C)c(/C=N/NC(=O)Cn2nccc2C)c1C`, the Potency was inconclusive: 20.6 µM [activator, partial curve].
For `CCOc1ccc(CNC(=O)c2ccc3c(c2)N(CC)CCS3)cc1`, the “activity change, negative = inhibition” value was inactive: -3.83%.
For `C=CCNC(=O)C1CC2Cn3c(nc4cc(Cl)c(Cl)cc43)C2N1C` (stereo not drawn), the Potency was inconclusive: 3.16 µM [activator, partial curve, poor fit].
With `Cc1ccc(N(C)S(=O)(=O)c2ccc3c(c2)NC(=O)C(C)S3)cc1` (stereo not drawn) the Potency was inconclusive: 29.1 µM [inhibitor, single point].
For `O=C(CCn1c(=O)c2sccc2n(CC(=O)OCc2ccccc2)c1=O)NCc1ccccc1`, the Potency was inconclusive: 23.1 µM [inhibitor, single point].
In the case of `Cc1noc(C)c1C(=O)OCC(=O)N(C)C1CCS(=O)(=O)C1` (stereo not drawn), the Potency is reported as inconclusive: 11.6 µM [activator, partial curve, poor fit].
In the case of `CCOc1ccc(-n2nc(C(=O)N3CCN(CC)CC3)c3ccccc3c2=O)cc1`, the Potency is reported as inconclusive: 29.1 µM [inhibitor, single point].
For `Cc1oc(-c2cccc(Br)c2)[n+]([O-])c1C`, the Potency was inconclusive: 29.1 µM [activator, single point].
In the case of `COc1ccc(C(=O)NCCSCc2ccccc2Cl)cc1OC`, the “activity change, negative = inhibition” value is reported as inactive: -15.4%.
For `COC(=O)c1ccc(NC(=O)CS(=O)(=O)c2ccccc2)cc1`, the “activity change, negative = inhibition” value was inactive: 28.8%.
With `COc1ccc(OC)c(N(CC(=O)N2CCCC2)S(=O)(=O)c2ccc(OC)c(OC)c2)c1` the Potency was inconclusive: 20.6 µM [inhibitor, single point].
With `Cc1ccc(-c2ccc(OCC(=O)N3CCOCC3)cc2)cc1` the Potency was inconclusive: 20.6 µM [activator, partial curve, poor fit].
In the case of `CCNC(=O)N(C)C[C@H]1N[C@@](C)(C(=O)OC)[C@H]2C(=O)N(Cc3ccccc3)C(=O)[C@@H]12`, the “activity change, negative = inhibition” value is reported as inactive: 25.8%.
For `O=C(CSC(=S)N1CCOCC1)Nc1ccc(S(=O)(=O)Nc2ncccn2)cc1`, the Potency was inconclusive: 29.1 µM [activator, single point].
With `Cc1cc(C)c(C)c(S(=O)(=O)N2CCN(CC(=O)NC(=O)NCc3ccccc3)CC2)c1C` the Potency was inconclusive: 18.4 µM [inhibitor, single point].
For `COC(=O)c1c(NC(=O)/C=C/C(=O)O)sc(Cc2ccccc2)c1C`, the “activity change, negative = inhibition” value was inactive: -8.86%.
In the case of `COc1ccc(Br)cc1C(=O)CCC(=O)OCC(=O)Nc1cc(C(N)=O)cc(C(N)=O)c1`, the “activity change, negative = inhibition” value is reported as inactive: 8.51%.
For `C=C(C)C(COc1c2occc2cc2ccc(=O)oc12)OC(C)(C)C(O)COc1c2occc2cc2ccc(=O)oc12` (stereo not drawn), the Potency was inconclusive: 18.3 µM [inhibitor, single point].
With `COc1ccc(NC(C)C(=O)Nc2cc(C(F)(F)F)ccc2N2CCOCC2)c(OC)c1` (stereo not drawn) the “activity change, negative = inhibition” value was inactive: 1.61%.
In the case of `Cc1cccc(Nc2nc(N)nc(CN3CCN(c4ccc(F)cc4)CC3)n2)c1`, the Potency is reported as inconclusive: 20 µM [inhibitor, single point].
In the case of `O=C(NCc1cccnc1)c1ccc(NC(=O)c2ccc(Br)cc2)cc1`, the Potency is reported as active: 2.31 µM.
In the case of `CC1CCCN(c2ccc(C(=O)NCCc3ccccc3)cn2)C1` (stereo not drawn), the Potency is reported as inconclusive: 2.31 µM [activator, partial curve].
In the case of `O=C(NCCc1ccccc1)C1CC1`, the Potency is reported as inconclusive: 32.6 µM [activator, partial curve, poor fit].
In the case of `CCCCN1C2=C(C(=O)CC(C)(C)C2)C(c2ccccc2)C2=C1c1ccccc1C2=O` (stereo not drawn), the “activity change, negative = inhibition” value is reported as inactive: -26.9%.
For `Cn1c(-[n+]2c(-c3ccccc3)cc(-c3ccccc3)cc2-c2ccccc2)nc2cc([N+](=O)[O-])ccc21`, the Potency was inconclusive: 29.1 µM [inhibitor, single point].
For `CCOC(=O)c1c(C)n(C)c2ccc(OC)c(NC(=O)CN3CCC4(CC3)OCCO4)c12`, the Potency was inconclusive: 20.6 µM [inhibitor, partial curve].
